The record followed here is US10321684B2, “Use of 9-beta-D-adenosine to increase crop production” (The Regents of the University of California, priority 2009, dated 2019).

In the series the test system is 'Fina Sodea' Clementine mandarin trees. The series can be described thus: Adenosine by foliar spray (canopy application): fruit number, yield and value of mandarin trees. It counts as in vivo. Conditions: based on 200 trees/acre. Here is the method:
This example describes the increase in the number and yield of commercially valuable fruit of Clementine mandarin trees achieved by canopy application of adenosine. Adenosine (9-beta-D-adenosine) obtained from Sigma Chemical Co. (Catalog No. A9251) was applied (25 mg/L in 250 gallons of water per acre; 23.66 g/acre) with a 400 psi handgun sprayer one time at maximum peel thickness, which marks the end of the cell division stage of citrus fruit development, to ‘Fina Sodea’ Clementine mandarin trees.

In the case of `Nc1ncnc2c1ncn2[C@@H]1O[C@H](CO)[C@@H](O)[C@H]1O` [Adenosine, 9-beta-D-adenosine], for the setting “$3.50 per 11 kg box”, the “Fruit value (cumulative income), Small” value is recorded as 1497.80 US$/acre. Also, under “$3.75 per 11 kg box”, the “Fruit value (cumulative income), Medium” value turned out to be 2522.40 US$/acre. Also, under “$4.10 per 11 kg box”, the “Fruit value (cumulative income), Jumbo” value stood at 1149.50 a US$/acre; the “Fruit value (cumulative income), Large” value came to 2584.10 a US$/acre; the “Fruit value (cumulative income), Mammoth” value turned out to be 262.10 US$/acre. Moreover, where the note is “sum of mammoth, jumbo and large”, the “Fruit value (cumulative income), Ma + J + L” value came out at 3995.60 a US$/acre. Under “sum of small, medium, large, jumbo and mammoth”, the “Fruit value (cumulative income), Total” value was 8015.80 US$/acre.
